Measurements reported in PubChem BioAssay AID1259405 (NCATS, 2018)
This is one part, drawn at random, of about 50,000 reagents tested. Of all reagents, about 4,000 (8%) got an active call. 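Mouse siRNA library applied to hamster cells; one well for each siRNA.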 Reagents against one gene are numbered here.

Purpose: 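Silenced genes that increase secreted GFP made by CHO cells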 (primary screen)
Cells: Chinese hamster CHO-K1 ovary cells with stable secreted eGFP expression
Reagent: single siRNA against mouse genes, 0.8 pmol siRNA per well (2 µl of 400 nM stock)
Timing: 3 days
Measurement: 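Per-well intracellular GFP measured by laser scanning cytometry, plus viability from ATP luminescence, each relative to plate median of non-targeting control wells, in %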
Reading the numbers: GFP, % of control: higher = more GFP per well, higher productivity; viability (ATP), % of control: higher = more viable cells (more ATP)
Call rule: 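a knock-down is called active if GFP reaches 120% or more of non-targeting control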

Enpp4 (GeneID 224794) #1
- GFP, % of control: 49.1
- viability (ATP), % of control: 76.8
- Call: inactive

Enpp4 (GeneID 224794) #2
- GFP, % of control: 75.8
- viability (ATP), % of control: 76.7
- Call: inactive

Enpp4 (GeneID 224794) #3
- GFP, % of control: 77.5
- viability (ATP), % of control: 75.2
- Call: inactive

Or10a4 (GeneID 18314) #1
- GFP, % of control: 91
- viability (ATP), % of control: 74.8
- Call: inactive

Or10a4 (GeneID 18314) #2
- GFP, % of control: 61.8
- viability (ATP), % of control: 66.5
- Call: inactive

Or10a4 (GeneID 18314) #3
- GFP, % of control: 43.9
- viability (ATP), % of control: 20.5
- Call: inactive

Lmbrd1 (GeneID 68421) #1
- GFP, % of control: 122
- viability (ATP), % of control: 107
- Call: active

Lmbrd1 (GeneID 68421) #2
- GFP, % of control: 67.1
- viability (ATP), % of control: 53.8
- Call: inactive

Lmbrd1 (GeneID 68421) #3
- GFP, % of control: 74.7
- viability (ATP), % of control: 79.3
- Call: inactive

Ccndbp1 (GeneID 17151) #1
- GFP, % of control: 67.7
- viability (ATP), % of control: 68.1
- Call: inactive

Ccndbp1 (GeneID 17151) #2
- GFP, % of control: 113
- viability (ATP), % of control: 68.9
- Call: inactive

Ccndbp1 (GeneID 17151) #3
- GFP, % of control: 85.9
- viability (ATP), % of control: 115
- Call: inactive

Pstk (GeneID 214580) #1
- GFP, % of control: 62.4
- viability (ATP), % of control: 58.6
- Call: inactive

Pstk (GeneID 214580) #2
- GFP, % of control: 77.2
- viability (ATP), % of control: 76.3
- Call: inactive

Pstk (GeneID 214580) #3
- GFP, % of control: 61.8
- viability (ATP), % of control: 77.3
- Call: inactive

Pgam5 (GeneID 72542) #1
- GFP, % of control: 72.4
- viability (ATP), % of control: 65
- Call: inactive

Pgam5 (GeneID 72542) #2
- GFP, % of control: 74.7
- viability (ATP), % of control: 98.2
- Call: inactive

Pgam5 (GeneID 72542) #3
- GFP, % of control: 89.6
- viability (ATP), % of control: 104
- Call: inactive

Targets listed so far whose gene name begins with E or e (3):
Enpp4 (GeneID 224794) #1
- GFP, % of control: 49.1
- viability (ATP), % of control: 76.8
- Call: inactive

Enpp4 (GeneID 224794) #2
- GFP, % of control: 75.8
- viability (ATP), % of control: 76.7
- Call: inactive

Enpp4 (GeneID 224794) #3
- GFP, % of control: 77.5
- viability (ATP), % of control: 75.2
- Call: inactive
